# Data as given in PubChem BioAssay AID2685 (National Center for Advancing Translational Sciences (NCATS), 2010).
# This is one part of the list. Shown are side measurements of this screen, not its main read-out; they come without a call. Most of these compounds were active or inconclusive in the main read-out, so they are no random draw. Potencies come from curve fits of mixed quality, noted in brackets.
# Test: qHTS Assay for Lipid Storage Modulators in Drosophila S3 Cells;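 on cell number change: cells counted by Cell Tracker Red CMTPX staining in the red channel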
# Conditions: BODIPY lipid droplet fluorescence, 18-24 h; for cell number change: measured here: cell count max response, cells fed with added oleic acid
# Procedure, shortened: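 Drosophila S3 cells got compounds at several concentrations plus oleic acid (400 uM solution). Laser-scanning cytometry with 488 nm excitation read lipid droplets at 500-530 nm and cells at 575-640 nm. Percent activity was relative to 20 uM Triacsin C.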
# [1] = measured here: cell number channel AC50, cells fed with added oleic acid
# [2] = measured here: lipid fluorescence (Fed channel) AC50, cells fed with added oleic acid
SMILES,cell number change,AC50 [1],AC50 [2]
COc1cc(/C=N/NC(=O)/C(=C\c2ccc([N+](=O)[O-])cc2)NC(=O)c2ccccc2)cc(OC)c1O,-0.35%,–,–
c1ccc2[nH]c(CN3CCOCC3)nc2c1,43.1%,"10.3 µM [rising, partial curve, poor fit]",–
CCCn1cc(NC(=O)c2cc3n(n2)C(C(F)(F)F)CC(c2ccccc2)N3)cn1 (centres undefined),225%,"2.59 µM [rising, partial curve]","0.366 µM [rising, full curve]"
O=C(COC(=O)c1ccc(O)cc1O)c1ccc(Cl)cc1,35.7%,"29.1 µM [rising, single point]",–
COc1ccc(C2C(=O)c3ccccc3C2=O)cc1OC,20.2%,"3.66 µM [falling, single point]","3.66 µM [falling, single point]"
Cc1ccc2c(c1)NC(=O)C(CC(=O)NCCCN1CCN(c3cc(C)ccc3C)CC1)O2 (centres undefined),–,–,"32.6 µM [rising, single point]"
COc1ccc(Cl)cc1NC(=O)NC(C)C,–,–,"6.51 µM [falling, single point]"
COc1cc(CN2CCC(C(=O)N3CCC(C)CC3)CC2)cc(Br)c1O,10.9%,–,"3.26 µM [rising, single point]"
Cc1cc(S(=O)(=O)Nc2ccc(C(=O)NCCCn3ccnc3)cc2)ccc1F,30.1%,"23.1 µM [rising, single point]",–
CC1(C)CC(=O)C(CC(=O)N2CCC(Cc3ccccc3)CC2)C(=O)C1,–,–,"1.3 µM [falling, full curve]"
C=CCn1c(SCC(=O)NC2(C#N)CCCCC2)nnc1-c1ccncc1,25%,"1.3 µM [rising, full curve, poor fit]",–
Cc1cc(C)n(-c2nc(NCC(C)O)c3c4c(sc3n2)COC(C)(C)C4)n1 (centres undefined),-40.9%,"11.6 µM [falling, single point]",–
CN(Cc1ccccc1)C(=O)CN1C(=O)NC2(CCCC2)C1=O,7.38%,–,–
CCn1ncc(N2CCOCC2)c(Cl)c1=O,22.5%,–,–
O=C(NC1CC2CCC(C1)N2C(=O)NCc1ccccc1)C1CC1 (centres undefined),-32%,"16.4 µM [falling, single point]",–
O=C1NNC(c2ccccc2)=N/C1=C\c1ccco1,12%,–,–
Cc1cc(OCC(=O)OCC(=O)NC2CCCCC2C)ccc1Cl (centres undefined),-4.23%,"6.51 µM [falling, single point]","6.51 µM [falling, single point]"
O=C(CSc1ncnc2c1nnn2Cc1ccc(F)cc1)NC1CCCC1,-26.3%,–,"0.82 µM [falling, partial curve, poor fit]"
Nc1nc(COC(=O)C2CC(=O)N(CCc3ccccc3)C2)nc(Nc2ccccc2)n1 (centres undefined),-2.76%,–,"29.1 µM [rising, single point]"
COC(=O)[C@H](C)NC(=O)NCc1ccccc1F,-29.1%,"0.092 µM [falling, full curve, poor fit]","0.461 µM [falling, full curve, poor fit]"

SMILES,cell number change,AC50 [1],AC50 [2]
CC1Cc2ccccc2N1C(=O)COC(=O)c1n[nH]c(=O)c2ccccc12 (centres undefined),5.96%,–,"23.1 µM [rising, single point]"
COc1cc(NC(=O)c2cncc(-c3ccc(C#N)cc3)c2)cc(C(=O)Nc2cccc(C(F)(F)F)c2)c1,-20.5%,–,–
COc1ccc([N+](=O)[O-])c(S(=O)(=O)c2ccc(Cl)cc2)n1,-61.7%,"11.6 µM [falling, partial curve]",–
CCOC(=O)c1c(CC(C)C)csc1NC(=O)C(C)C,-22.6%,–,–
NCC(=O)N1CCC(C(=O)N[C@@H](Cc2c[nH]c3ccccc23)C(=O)O)CC1,–,–,"6.51 µM [falling, single point]"
CC1(C(=O)O)CCC(C(=O)Nc2ccccc2O)C1(C)C (centres undefined),25.3%,–,"0.116 µM [falling, full curve]"
COCCNC(=O)CCCC(=O)NCCOC,-61.8%,"29.1 µM [falling, partial curve, poor fit]",–
Cc1cc(C)c2c(C)c(C(=O)NCc3ccc(S(N)(=O)=O)cc3)oc2c1,-25%,–,"23.1 µM [falling, single point]"
NS(=O)(=O)c1ccc(NC(=O)CSc2ccccn2)cc1,18.2%,"0.082 µM [rising, full curve, poor fit]","18.4 µM [rising, single point]"
CCCn1c(N)c(C(=O)CN(C)CC(=O)Nc2c(C)cc(C)cc2C)c(=O)[nH]c1=O,–,–,"6.51 µM [rising, partial curve]"
O=C(NC1CCCCCC1)C(=S)N1CCOCC1,-8.31%,–,"29.1 µM [falling, single point]"
Cc1ccc(C)c(S(=O)(=O)N/N=C/c2cccnc2)c1,66.5%,"18.4 µM [rising, partial curve, poor fit]","0.651 µM [rising, partial curve, poor fit]"
Cc1ccc(NS(=O)(=O)c2ccc3c(c2)NC(=O)CO3)cc1Cl,8.26%,–,–
COc1ccc(NC(=O)COc2ccccc2Cc2ccccc2)cc1S(=O)(=O)N1CCOCC1,-50%,"29.1 µM [falling, single point]",–
CCCOc1ccc(-c2nc(N3CCN(C)CC3)c3ccccc3n2)cc1,-26.9%,–,"29.1 µM [falling, single point]"
O=C(CN1CCN(CCN2C(=O)c3cccc4cccc(c34)C2=O)CC1)c1ccc(F)cc1,-30.6%,"11.6 µM [falling, single point]",–
CN1CC[C@]2(CCN3CCc4c(oc5ccccc45)[C@@H]3C2)N(C)C1=O,33.8%,"13 µM [rising, single point]","13 µM [rising, single point]"
O=C(CCCCCn1c(=O)[nH]c2ccccc2c1=O)NCCCN1CCN(c2ccccc2F)CC1,–,"6.51 µM [rising, single point]","6.51 µM [rising, partial curve, poor fit]"
C/C(=N/NC(=O)c1ccncc1)C1=C(O)CC(C)(C)CC1=O,-25.9%,"0.82 µM [falling, full curve, poor fit]","5.8 µM [rising, single point]"

# Sorted by heavy-atom count (rising): 3 of the compounds above
SMILES,cell number change,AC50 [1],AC50 [2]
NS(=O)(=O)c1ccc(NC(=O)CSc2ccccn2)cc1,18.2%,"0.082 µM [rising, full curve, poor fit]","18.4 µM [rising, single point]"
Cc1ccc(NS(=O)(=O)c2ccc3c(c2)NC(=O)CO3)cc1Cl,8.26%,–,–
CC1Cc2ccccc2N1C(=O)COC(=O)c1n[nH]c(=O)c2ccccc12 (centres undefined),5.96%,–,"23.1 µM [rising, single point]"
